Experimental data from US9487515B2, “Compounds modulating c-fms and/or c-kit activity and uses therefor” (Plexxikon Inc., priority 2006, dated 2016).
pIC50: −log10 of the molar value. Some results were stated once for a whole list of compounds, not compound by compound.

molecular target: Fms (UniProt P07333); experiment: Fms assays of Examples 40 or 41 (AlphaScreen kinase assays at 10 and 100 μM ATP, 33P-ATP filter assay, RAW264.7 pFMS and M-NFS-60 M-CSF-stimulated proliferation); settings: in at least one of the Fms assays described in Examples 40 or 41

pIC50, > 6.00:
N#Cc1cnc2[nH]cc(Cc3ccc(NCc4ccncc4Cl)nc3)c2c1 [P-0256, 3-{6-[(3-Chloro-pyridin-4-ylmethyl)-amino]-pyridin-3-ylmethyl}-1H-pyrrolo[2,3-b]pyridine-5-carbonitrile]
N#Cc1cnc2[nH]cc(Cc3ccc(NCc4ccc(Cl)cc4)nc3)c2c1 [P-0257, 3-[6-(4-Chloro-benzylamino)-pyridin-3-ylmethyl]-1H-pyrrolo[2,3-b]pyridine-5-carbonitrile]
CCCS(=O)(=O)Nc1ccc(F)c(CNc2ccc(Cc3c[nH]c4ncccc34)cn2)c1F [P-0258, propane-1-sulfonic acid (2,4-difluoro-3-[5-(1H-pyrrolo[2,3-b]pyridin-3-ylmethyl)-pyridin-2-ylamino]-methyl-phenyl)-amide]
CCCS(=O)(=O)Nc1ccc(F)c(CNc2ccc(Cc3c[nH]c4ncc(Cl)cc34)cn2)c1F [P-0259, Propane-1-sulfonic acid (3-{[5-(5-chloro-1H-pyrrolo[2,3-b]pyridin-3-ylmethyl)-pyridin-2-ylamino]-methyl}-2,4-difluoro-phenyl)-amide]
Clc1ccc(CNc2ncc(Cc3c[nH]c4ncc(Cl)cc34)cn2)cc1 [P-0260, (4-Chloro-benzyl)-[5-(5-chloro-1H-pyrrolo[2,3-b]pyridin-3-ylmethyl)-pyrimidin-2-yl]-amine]
Fc1cccc(F)c1CNc1ncc(Cc2c[nH]c3ncc(Cl)cc23)cn1 [P-0261, [5-(5-Chloro-1H-pyrrolo[2,3-b]pyridin-3-ylmethyl)-pyrimidin-2-yl]-(2,6-difluoro-benzyl)-amine]
FC(F)(F)c1ccccc1CNc1ncc(Cc2c[nH]c3ncc(Cl)cc23)cn1 [P-0262, [5-(5-Chloro-1H-pyrrolo[2,3-b]pyridin-3-ylmethyl)-pyrimidin-2-yl]-(2-trifluoromethyl-benzyl)-amine]
Clc1cnc2[nH]cc(Cc3cnc(NCc4ccccc4Cl)nc3)c2c1 [P-0263, (2-Chloro-benzyl)-[5-(5-chloro-1H-pyrrolo[2,3-b]pyridin-3-ylmethyl)-pyrimidin-2-yl]-amine]
Fc1ccccc1CNc1ncc(Cc2c[nH]c3ncc(Cl)cc23)cn1 [P-0264, [5-(5-Chloro-1H-pyrrolo[2,3-b]pyridin-3-ylmethyl)-pyrimidin-2-yl]-(2-fluoro-benzyl)-amine]
Fc1ccc(CNc2ncc(Cc3c[nH]c4ncc(Cl)cc34)cn2)c(F)c1 [P-0265, [5-(5-Chloro-1H-pyrrolo[2,3-b]pyridin-3-ylmethyl)-pyrimidin-2-yl]-(2,4-difluoro-benzyl)-amine]
FC(F)(F)c1ccc(CNc2ncc(Cc3c[nH]c4ncc(Cl)cc34)cn2)cc1 [P-0266, [5-(5-Chloro-1H-pyrrolo[2,3-b]pyridin-3-ylmethyl)-pyrimidin-2-yl]-(4-trifluoromethyl-benzyl)-amine]
Fc1ccc(F)c(CNc2ncc(Cc3c[nH]c4ncc(Cl)cc34)cn2)c1 [P-0267, [5-(5-Chloro-1H-pyrrolo[2,3-b]pyridin-3-ylmethyl)-pyrimidin-2-yl]-(2,5-difluoro-benzyl)-amine]
FC(F)(F)c1cccc(CNc2ncc(Cc3c[nH]c4ncc(Cl)cc34)cn2)c1 [P-0268, [5-(5-Chloro-1H-pyrrolo[2,3-b]pyridin-3-ylmethyl)-pyrimidin-2-yl]-(3-trifluoromethyl-benzyl)-amine]
N#Cc1cnc2[nH]cc(Cc3ccc(NCc4ccc(C(F)(F)F)cc4)nc3)c2c1 [P-0269, 3-[6-(4-Trifluoromethyl-benzylamino)-pyridin-3-ylmethyl]-1H-pyrrolo[2,3-b]pyridine-5-carbonitrile]
Fc1ccccc1CNc1ccc(Cc2c[nH]c3ncc(Cl)cc23)cn1 [P-0270, [5-(5-Chloro-1H-pyrrolo[2,3-b]pyridin-3-ylmethyl)-pyridin-2-yl]-(2-fluoro-benzyl)-amine]
N#Cc1cnc2[nH]cc(Cc3ccc(NCc4ccccc4F)nc3)c2c1 [P-0271, 3-[6-(2-Fluoro-benzylamino)-pyridin-3-ylmethyl]-1H-pyrrolo[2,3-b]pyridine-5-carbonitrile]
Cc1cnc2[nH]cc(Cc3ccc(NCc4ccccc4F)nc3)c2c1 [P-0272, (2-Fluoro-benzyl)-[5-(5-methyl-1H-pyrrolo[2,3-b]pyridin-3-ylmethyl)-pyridin-2-yl]-amine]
N#Cc1cnc2[nH]cc(Cc3ccc(NCc4ccc(C(F)(F)F)nc4)nc3)c2c1 [P-0273, 3-{6-[(6-Trifluoromethyl-pyridin-3-ylmethyl)-amino]-pyridin-3-ylmethyl}-1H-pyrrolo[2,3-b]pyridine-5-carbonitrile]
N#Cc1cnc2[nH]cc(Cc3ccc(NCc4ccccc4C(F)(F)F)nc3)c2c1 [P-0274, 3-[6-(2-Trifluoromethyl-benzylamino)-pyridin-3-ylmethyl]-1H-pyrrolo[2,3-b]pyridine-5-carbonitrile]
FC(F)(F)c1ccccc1CNc1ccc(Cc2c[nH]c3ncc(Cl)cc23)cn1 [P-0275, [5-(5-Chloro-1H-pyrrolo[2,3-b]pyridin-3-ylmethyl)-pyridin-2-yl]-(2-trifluoromethyl-benzyl)-amine]
Cc1cnc2[nH]cc(Cc3ccc(NCc4ccccc4C(F)(F)F)nc3)c2c1 [P-0276, [5-(5-Methyl-1H-pyrrolo[2,3-b]pyridin-3-ylmethyl)-pyridin-2-yl]-(2-trifluoromethyl-benzyl)-amine]
N#Cc1cnc2[nH]cc(Cc3ccc(NCc4c(F)cccc4F)nc3)c2c1 [P-0277, 3-[6-(2,6-Difluoro-benzylamino)-pyridin-3-ylmethyl]-1H-pyrrolo[2,3-b]pyridine-5-carbonitrile]
Fc1cccc(F)c1CNc1ccc(Cc2c[nH]c3ncc(Cl)cc23)cn1 [P-0278, [5-(5-Chloro-1H-pyrrolo[2,3-b]pyridin-3-ylmethyl)-pyridin-2-yl]-(2,6-difluoro-benzyl)-amine]
Cc1cnc2[nH]cc(Cc3ccc(NCc4ccccc4Cl)nc3)c2c1 [P-0279, (2-Chloro-benzyl)-[5-(5-methyl-1H-pyrrolo[2,3-b]pyridin-3-ylmethyl)-pyridin-2-yl]-amine]
Clc1cnc2[nH]cc(Cc3ccc(NCc4ccccc4Cl)nc3)c2c1 [P-0280, (2-Chloro-benzyl)-[5-(5-chloro-1H-pyrrolo[2,3-b]pyridin-3-ylmethyl)-pyridin-2-yl]-amine]
N#Cc1cnc2[nH]cc(Cc3ccc(NCc4ccccc4Cl)nc3)c2c1 [P-0281, 3-[6-(2-Chloro-benzylamino)-pyridin-3-ylmethyl]-1H-pyrrolo[2,3-b]pyridine-5-carbonitrile]
COc1ccc(CNc2ccc(Cc3c[nH]c4ncc(C)cc34)cn2)cn1 [P-0282, (6-Methoxy-pyridin-3-ylmethyl)-[5-(5-methyl-1H-pyrrolo[2,3-b]pyridin-3-ylmethyl)-pyridin-2-yl]-amine]
COc1ccc(CNc2ccc(Cc3c[nH]c4ncc(Cl)cc34)cn2)cn1 [P-0283, [5-(5-Chloro-1H-pyrrolo[2,3-b]pyridin-3-ylmethyl)-pyridin-2-yl]-(6-methoxy-pyridin-3-ylmethyl)-amine]
COc1ccc(CNc2ccc(Cc3c[nH]c4ncc(C#N)cc34)cn2)cn1 [P-0284, 3-{6-[(6-Methoxy-pyridin-3-ylmethyl)-amino]-pyridin-3-ylmethyl}-1H-pyrrolo[2,3-b]pyridine-5-carbonitrile]
COc1ncccc1CNc1ccc(Cc2c[nH]c3ncc(C)cc23)cn1 [P-0285, (2-Methoxy-pyridin-3-ylmethyl)-[5-(5-methyl-1H-pyrrolo[2,3-b]pyridin-3-ylmethyl)-pyridin-2-yl]-amine]
COc1ncccc1CNc1ccc(Cc2c[nH]c3ncc(Cl)cc23)cn1 [P-0286, [5-(5-Chloro-1H-pyrrolo[2,3-b]pyridin-3-ylmethyl)-pyridin-2-yl]-(2-methoxy-pyridin-3-ylmethyl)-amine]
COc1ncccc1CNc1ccc(Cc2c[nH]c3ncc(C#N)cc23)cn1 [P-0287, 3-{6-[(2-Methoxy-pyridin-3-ylmethyl)-amino]-pyridin-3-ylmethyl}-1H-pyrrolo[2,3-b]pyridine-5-carbonitrile]
CCOc1ccccc1CNc1ccc(Cc2c[nH]c3ncccc23)cn1 [P-0288, (2-Ethoxy-benzyl)-[5-(1H-pyrrolo[2,3-b]pyridin-3-ylmethyl)-pyridin-2-yl]-amine]
Fc1ccc(C(F)(F)F)cc1CNc1ncc(Cc2c[nH]c3ncc(Cl)cc23)cn1 [P-0289, [5-(5-Chloro-1H-pyrrolo[2,3-b]pyridin-3-ylmethyl)-pyrimidin-2-yl]-(2-fluoro-5-trifluoromethyl-benzyl)-amine]
Fc1ccc(CNc2ncc(Cc3c[nH]c4ncc(Cl)cc34)s2)cc1 [P-0290, [5-(5-Chloro-1H-pyrrolo[2,3-b]pyridin-3-ylmethyl)-thiazol-2-yl]-(4-fluoro-benzyl)-amine]
Fc1ccc(C(F)(F)F)cc1CNc1ncc(Cc2c[nH]c3ncccc23)cn1 [P-0291, (2-Fluoro-5-trifluoromethyl-benzyl)-[5-(1H-pyrrolo[2,3-b]pyridin-3-ylmethyl)-pyrimidin-2-yl]-amine]
Fc1ccc(F)c(CNc2ncc(Cc3c[nH]c4ncccc34)cn2)c1 [P-0292, (2,5-Difluoro-benzyl)-[5-(1H-pyrrolo[2,3-b]pyridin-3-ylmethyl)-pyrimidin-2-yl]-amine]
FC(F)(F)c1ccc(Cl)c(CNc2ncc(Cc3c[nH]c4ncccc34)cn2)c1 [P-0293, (2-Chloro-5-trifluoromethyl-benzyl)-[5-(1H-pyrrolo[2,3-b]pyridin-3-ylmethyl)-pyrimidin-2-yl]-amine]
Fc1cc(CNc2ncc(Cc3c[nH]c4ncccc34)cn2)cc(C(F)(F)F)c1 [P-0294, (3-Fluoro-5-trifluoromethyl-benzyl)-[5-(1H-pyrrolo[2,3-b]pyridin-3-ylmethyl)-pyrimidin-2-yl]-amine]
